This experiment has as its target murine HDGF (of the putative 'MiaPaca-2' line, believed to be M109 murine lung adenocarcinoma cells) (mouse) (UniProt P51859). The experiment in a line: immunoprecipitation from the putative 'MiaPaca-2' (murine) cells.

The chains behind the UniProt entries cited, without tags or fusion partners. Where a name states a change or a piece, a line headed by the entry shows the natural chain unless it says otherwise.
UniProt P51859: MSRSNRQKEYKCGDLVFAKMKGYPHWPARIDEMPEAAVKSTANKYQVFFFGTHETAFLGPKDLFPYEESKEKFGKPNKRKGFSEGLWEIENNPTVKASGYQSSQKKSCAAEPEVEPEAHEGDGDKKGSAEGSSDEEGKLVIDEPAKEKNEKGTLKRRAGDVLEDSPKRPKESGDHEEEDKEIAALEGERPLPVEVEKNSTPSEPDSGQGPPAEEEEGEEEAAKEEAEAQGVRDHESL

No constants are given. Whether binding was seen depends on the method and setting. Some entries that bind do so weakly or less than the wild type.

B1: anti-HDGF monoclonal antibody H3 (antibody, V domains shown)
VH: QITLKQSGPGIVQPSQPVRLTCTFSGFSLSTSGIGVAWIRQPSGKGLEWLATIWWDDDNRYNPSLKSRLAVSKDTSNNQAFLNIITVETADTAIYYCAQIYDYAVGFAYWGQGTLVTVSA
VL: DIQMTQTTSSLSASLGDRVTISCRASQDISNYLNWYQQKPDGTVKLLIYYTSRLHSGVPSRFSGSGSGTDYSLTISNLEPDDIATYYCQQYGKLWTFGGGTKLEIK
Turning to B1, the binding entry was “binds”.

Values taken from US20070243191A1, “ANTI-HYPERPROLIFERATIVE THERAPIES TARGETING HDGF” (THE BOARD OF REGENTS OF THE UNIVERSITY OF TEXAS SYSTEM, priority 2005, published 2007).
